At least one read-out could not be matched to a standard name with certainty.
Experiment: Stability of DES and IDS on acid hydrolysis (6N HCl, 110° C., 24 hrs), LC/MSMS
Conditions: 6N HCl at 110° C. for 24 hour
Protocol: The assay of total DES and IDS in biological fluids requires HCl hydrolysis at 110° C. to release DES and IDS from their crosslinked or peptide conjugates. We examined the stability of DES and IDS in three different concentrations (10, 5, and 1 ng/ml) during HCl hydrolysis at 110° C. for 24 hrs. The DES/IDS solutions resulting from the HCl treatment were subjected to LC/MSMS measurements of DES and IDS, which were compared with the measurements of the same concentrations of untreated DES and IDS to calculate the recovery by the acid treatment.

For `NC(CCCC[n+]1cc(CCC(N)C(=O)O)c(CCCC(N)C(=O)O)c(CCC(N)C(=O)O)c1)C(=O)O` (stereo not drawn) [DES, Desmosine], the “% Recovery” value (1 ng/ml DES/IDS) was 100%, the “% Recovery” value (5 ng/ml DES/IDS) was 97% and the “% Recovery” value (10 ng/ml DES/IDS) was 101%.

— patent US9885727B2, “Cell culture models for validating candidate compounds for use in treating COPD and other diseases” (THE TRUSTEES OF COLUMBIA UNIVERSITY IN THE CITY OF NEW YORK, priority 2010, dated 2018)
